In paper PMC9682754:
Results are given in words; binding and its absence hold for the method and conditions named. Binding seen in cells or lysates may run through a third protein. Some binding calls cover weakened binding; strength is not graded here.

Legend:
[1] = target: T1, CD6 cytosolic deletion mutant CD6Δcyt (UniProt P30203); experiment: co-IP; E6.1 cells not activated (no pervanadate); same Triton X-100 lysis buffer; CD6 immunoprecipitated with mAb MEM98 on Protein A Sepharose; RasGAP detected by western blot
T1 sequence: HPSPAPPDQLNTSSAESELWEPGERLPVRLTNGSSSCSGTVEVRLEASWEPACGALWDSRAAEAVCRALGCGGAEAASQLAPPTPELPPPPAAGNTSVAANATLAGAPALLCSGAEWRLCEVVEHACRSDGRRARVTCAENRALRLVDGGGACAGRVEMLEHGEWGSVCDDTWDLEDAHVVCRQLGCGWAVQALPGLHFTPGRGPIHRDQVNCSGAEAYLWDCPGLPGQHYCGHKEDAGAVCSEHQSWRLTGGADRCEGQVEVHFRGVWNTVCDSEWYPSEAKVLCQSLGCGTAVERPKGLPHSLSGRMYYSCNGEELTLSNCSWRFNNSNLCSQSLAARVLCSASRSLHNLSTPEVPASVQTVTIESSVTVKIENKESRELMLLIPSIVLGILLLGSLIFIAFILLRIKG

CD6 wild-type (CD6WT) [2] = target: T2, CD6 wild-type (CD6WT) (UniProt P30203); experiment: co-IP; E6.1 cells activated with pervanadate for 5 min at 37 °C; lysed in 1% Triton X-100, 10 mM Tris-Cl pH 7.4, 150 mM NaCl, 1 mM EDTA, 1 mM PMSF, 1 mM orthovanadate; CD6 immunoprecipitated with mAb MEM98 on Protein A Sepharose; RasGAP detected by western blot
T2 sequence: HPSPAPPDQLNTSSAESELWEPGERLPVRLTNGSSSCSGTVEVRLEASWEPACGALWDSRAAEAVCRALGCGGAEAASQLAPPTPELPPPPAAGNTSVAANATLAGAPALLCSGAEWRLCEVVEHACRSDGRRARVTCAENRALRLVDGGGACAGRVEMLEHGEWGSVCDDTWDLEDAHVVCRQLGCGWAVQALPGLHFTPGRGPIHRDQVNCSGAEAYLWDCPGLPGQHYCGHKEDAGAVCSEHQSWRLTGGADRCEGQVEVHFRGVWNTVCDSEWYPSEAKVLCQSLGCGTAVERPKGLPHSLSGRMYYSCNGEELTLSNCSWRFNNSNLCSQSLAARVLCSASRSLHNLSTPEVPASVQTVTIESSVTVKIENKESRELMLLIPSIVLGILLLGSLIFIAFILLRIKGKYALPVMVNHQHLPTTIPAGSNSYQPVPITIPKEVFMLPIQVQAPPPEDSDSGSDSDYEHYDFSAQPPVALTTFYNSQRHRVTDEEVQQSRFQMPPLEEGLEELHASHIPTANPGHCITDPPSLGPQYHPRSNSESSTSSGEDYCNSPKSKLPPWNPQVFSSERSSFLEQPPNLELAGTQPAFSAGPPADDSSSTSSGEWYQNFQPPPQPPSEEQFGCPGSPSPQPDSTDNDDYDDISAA

[3] = target: T1, CD6 cytosolic deletion mutant CD6Δcyt; experiment: as above
CD6 wild-type (CD6WT) [4] = target: T2, CD6 wild-type (CD6WT); experiment: condition: only cells not activated with pervanadate; co-IP; E6.1 cells not activated (no pervanadate); same Triton X-100 lysis buffer; CD6 immunoprecipitated with mAb MEM98 on Protein A Sepharose; RasGAP detected by western blot

- binding [1]: no binding
- binding (CD6 wild-type (CD6WT) [2]): binds
- binding [3]: no binding
- binding (CD6 wild-type (CD6WT) [4]): no binding
B1: Ras GTPase-activating protein 1 (RasGAP) (enzyme, UniProt P20936 1-1047)
chain: MMAAEAGSEEGGPVTAGAGGGGAAAGSSAYPAVCRVKIPAALPVAAAPYPGLVETGVAGTLGGGAALGSEFLGAGSVAGALGGAGLTGGGTAAGVAGAAAGVAGAAVAGPSGDMALTKLPTSLLAETLGPGGGFPPLPPPPYLPPLGAGLGTVDEGDSLDGPEYEEEEVAIPLTAPPTNQWYHGKLDRTIAEERLRQAGKSGSYLIRESDRRPGSFVLSFLSQMNVVNHFRIIAMCGDYYIGGRRFSSLSDLIGYYSHVSCLLKGEKLLYPVAPPEPVEDRRRVRAILPYTKVPDTDEISFLKGDMFIVHNELEDGWMWVTNLRTDEQGLIVEDLVEEVGREEDPHEGKIWFHGKISKQEAYNLLMTVGQVCSFLVRPSDNTPGDYSLYFRTNENIQRFKICPTPNNQFMMGGRYYNSIGDIIDHYRKEQIVEGYYLKEPVPMQDQEQVLNDTVDGKEIYNTIRRKTKDAFYKNIVKKGYLLKKGKGKRWKNLYFILEGSDAQLIYFESEKRATKPKGLIDLSVCSVYVVHDSLFGRPNCFQIVVQHFSEEHYIFYFAGETPEQAEDWMKGLQAFCNLRKSSPGTSNKRLRQVSSLVLHIEEAHKLPVKHFTNPYCNIYLNSVQVAKTHAREGQNPVWSEEFVFDDLPPDINRFEITLSNKTKKSKDPDILFMRCQLSRLQKGHATDEWFLLSSHIPLKGIEPGSLRVRARYSMEKIMPEEEYSEFKELILQKELHVVYALSHVCGQDRTLLASILLRIFLHEKLESLLLCTLNDREISMEDEATTLFRATTLASTLMEQYMKATATQFVHHALKDSILKIMESKQSCELSPSKLEKNEDVNTNLTHLLNILSELVEKIFMASEILPPTLRYIYGCLQKSVQHKWPTNTTMRTRVVSGFVFLRLICPAILNPRMFNIISDSPSPIAARTLILVAKSVQNLANLVEFGAKEPYMEGVNPFIKSNKHRMIMFLDELGNVPELPDTTEHSRTDLSRDLAALHEICVAHSDELRTLSNERGAQQHVLKKLLAITELLQQKQNQYTKTNDVR
